The values below come from US20220112303A1 (ICHILOV TECH, published 2022).

For this experiment, the target named is T1, CD24 antigen (UniProt P25063 27-59).
T1 chain: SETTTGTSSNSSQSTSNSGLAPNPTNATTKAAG
Nature of the experiment: antigen-based ELISA.

No constants are given. Whether binding was seen depends on the method and setting. Some entries that bind do so weakly or less than the wild type.

B1: humanized matured NS17 anti-CD24 antibody (antibody, V domains shown)
VH: QVHLQESGPGLVKPSQTLSLTCAVSGYSISSGYTWHWIRQPPGKTVEWIGYIQYTGSTRYNPALRGRLTMSVDTSKNQFSLKLISVTAADTGVYFCARGTTASFDYWGQGTTVTVSS
VL: DIVMTQSPDSLNVSLGERATIRCRSSQSLLYSSDQKNYLTWYQQKPGQPPKLLISWASPRASGVPDRFSGSGSGTDFTLTISSLQAEDVGVYYCQQYFIYPLTFGVGTKLELK
notes: Tested as whole IgG with human CH1-CH3 and Ck, expressed from the pcDNA4-PCMV-TetO2-IgL-PCMV-TetO2-IgH vector; also called matured antibody
Regarding B1, the binding entry is recorded as “binds”.
